Measurements reported in PubChem BioAssay AID2685 (National Center for Advancing Translational Sciences (NCATS), 2010).
The list shows a part of the results. Further columns of the screen follow, without active or inactive calls. Most of these compounds were active or inconclusive in the main read-out, so they are no random draw. The note in brackets gives the kind of curve behind each potency; many fits are weak.

Assay: qHTS Assay for Lipid Storage Modulators in Drosophila S3 Cells;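 for cell number change: cells counted by Cell Tracker Red CMTPX staining in the red channel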
Settings: BODIPY lipid droplet fluorescence, 18-24 h; for cell number change: measured here: cell count max response, cells fed with added oleic acid
Summary of the method: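 Drosophila S3 cells loaded with oleic acid (400 uM, as added) and compounds at several concentrations; lipid droplets imaged by 488-nm laser-scanning cytometry, 500–530 nm intensity and object ratio to cell channel. Percent activity normalized to 20 uM Triacsin C.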

[1] = measured here: cell number channel AC50, cells fed with added oleic acid
[2] = measured here: lipid fluorescence (Fed channel) AC50, cells fed with added oleic acid

SMILES | AC50 [1] | cell number change [%] | AC50 [2]
Cc1ccccc1NC(=O)COc1coc(CN2CCN(c3ccccc3)CC2)cc1=O | 0.58 µM [falling, single point] |  | 
COc1ccc(NC(=O)CCCn2c(=S)[nH]c3ccccc3c2=O)cc1 | 29.1 µM [rising, single point] | 51.5 | 
O=C1NN(c2ccccc2)C(=O)/C1=C/c1ccc(Sc2cccc3ccccc23)o1 |  | -18.2 | 32.6 µM [falling, partial curve]
COCn1c(COc2ccccc2)nc2ccccc21 |  | 22.7 | 
O=C(CSCSCC(=O)Nc1ccc2c(c1)OCO2)Nc1ccc2c(c1)OCO2 |  | 1.41 | 
Cc1ccc(C(=O)NNC(=O)c2ccncc2)cc1[N+](=O)[O-] |  | 11.8 | 18.4 µM [rising, single point]
COc1ccc(OCCOC(=O)Nc2ccccc2)cc1 | 7.31 µM [rising, partial curve] | 31.5 | 
COc1ccc(CNC(=O)c2cc3c(s2)CS(=O)C3)cc1 (stereo unspecified) |  | 11.7 | 
CCCn1c(SC(C)C(=O)NCC2CCCO2)nc2cc(Cl)ccc2c1=O (stereo unspecified) | 0.291 µM [rising, full curve, poor fit] | 22.2 | 
CC1CCc2sc(C(=O)NCC3CCCO3)cc2C1 (stereo unspecified) |  | -5.55 | 5.8 µM [falling, partial curve]
Cc1ccc(NC(=O)C2CCN(C(=O)c3ccc(Cl)cc3)CC2)nc1 |  | 13.3 | 3.66 µM [rising, single point]
CCOc1ccccc1OCCCC(=O)N(C)CC(=O)Nc1cc(C)ccc1C |  |  | 0.116 µM [rising, full curve, poor fit]
NS(=O)(=O)c1ccc(NC(=O)c2cccc(N3C(=O)c4ccccc4C3=O)c2)cc1 |  | 15.3 | 0.206 µM [rising, full curve]
CCc1nc2sc3ccccc3c(=O)c2c(=O)n1Cc1ccc(OC)cc1 |  | -19.1 | 29.1 µM [falling, single point]
CC(OC(=O)CN1C(=O)c2ccccc2C1=O)C(=O)NC1CCCCC1 (stereo unspecified) |  | -8.55 | 18.4 µM [falling, partial curve, poor fit]
CCCc1[nH]n(-c2ccc(F)cc2)c(=O)c1C=Nc1ccc(C)cc1 | 32.6 µM [rising, single point] | 33.4 | 
Cc1c(C(=O)OCC(=O)N2CC(=O)Nc3ccccc32)oc2ccccc12 | 5.8 µM [rising, full curve, poor fit] | 31.5 | 5.17 µM [rising, single point]
COCCn1nnnc1C(c1ccccc1OC)N1CCN(C(=O)c2ccco2)CC1 (stereo unspecified) |  | 21.6 | 

2 records drawn at random from the list so far:
SMILES | AC50 [1] | cell number change [%] | AC50 [2]
COc1ccc(CNC(=O)c2cc3c(s2)CS(=O)C3)cc1 (stereo unspecified) |  | 11.7 | 
CCOc1ccccc1OCCCC(=O)N(C)CC(=O)Nc1cc(C)ccc1C |  |  | 0.116 µM [rising, full curve, poor fit]
